Patent US20250388673A1

target: cynomolgus BTLA (cynomolgus monkey); test: flow cytometry, Expi293 cells overexpressing cynomolgus BTLA

| binding | Binder |
| --- | --- |
| binds | HFB6-4hz9-hG1 (antibody, human IgG1, V domains shown) VH: EVQLVESGGGLVQPGRSLRLSCTTSGFNIKDTYIHWFRQAPGKGLEWVGRNDPANGNTKYTASFKGRATISADGSKSIAYLQMNSLKTEDTAVYYCASYEGYYERFGYWGQGTLVTVSS VL: DVVMTQSPLSLPVTLGQPASISCRSSQSLLDRDGKTYLNWLQQRPGQSPRRLIYLVSKRDSGVPDRFSGSGSGTDFTLKISRVEAEDVGVYYCWQDTHFPYTFGQGTKLEIK |
| binds | HFB6-5hz18-hG1 (antibody, human IgG1, V domains shown) VH: EVQLVQSGAEVKKPGESLKISCKGSGVNIKDTYMYWVRQMPGKGLEWIGRIDPANGYTRYSPSFQGQVTISADKSISTAYLQLSSLKASDTAMYYCAVYDGYYESFDVWGQGTLVTVSS VL: EIVLTQSPGTLSVSPGERATISCRSSQSLLDSDGKTYLNWLQQKPGQAPRRLIYLVSKRDTGVPDRFSGSGSGTDFTLTISRVEPEDFAVYYCWQGTLFPRTFGQGTKLEIK |
| binds | HFB6-5hz24-hG1 (antibody, human IgG1, V domains shown) VH: EVQLVQSGAEVKKPGESLKISCKGSGVNIKDTYMYWVRQMPGKGLEWIGRIDPANGYTRYSPSFQGQVTISADKSISTAYLQLSSLKASDTAMYYCAVYDGYYESFDVWGQGTLVTVSS VL: DIVMTQSPDSLAVSLGERATINCKSSQSLLDSDGKTYLNWLQQKPGQSPKRLIYLVSKLDSGVPDRFSGSGSGTDFTLTISSVQAEDLAVYYCWQGTLFPRTFGQGTKLEIK |
| binds | HFB6-5hz19-hG1 (antibody, human IgG1, V domains shown) VH: QVQLVQSGAEVKKPGSSVKVSCKASGVNIKDTYMYWVRQAPGQGLEWIGRIDPANGYARYAQKFQGRATITADESTSTAYMELSSLRSEDTAVYYCAVYDGYYESFDVWGQGTLVTVSS VL: DIVMTQSPDSLAVSLGERATINCKSSQSLLDSDGKTYLNWLQQKPGQSPKRLIYLVSKLDSGVPDRFSGSGSGTDFTLTISSVQAEDLAVYYCWQGTLFPRTFGQGTKLEIK |
| binds | HFB6-5hz21-hG1 (antibody, human IgG1, V domains shown) VH: EVQLVESGGGLVQPGRSLRLSCTASGVNIKDTYMYWVRQAPGKGLEWVGRIDPANGYTRYTASFKGRATISADGSKSIAYLQMNSLKTEDTAVYYCAVYDGYYESFDVWGQGTLVTVSS VL: DIVMTQSPDSLAVSLGERATINCKSSQSLLDSDGKTYLNWLQQKPGQSPKRLIYLVSKLDSGVPDRFSGSGSGTDFTLTISSVQAEDLAVYYCWQGTLFPRTFGQGTKLEIK |
| binds | HFB6-5hz22-hG1 (antibody, human IgG1, V domains shown) VH: EVQLVESGGGLVQPGGSLKLSCAASGVNIKDTYMYWVRQASGKGLEWIGRIDPANGYTRYAASFKGRATISADDSKNTAYLQLNSLKTEDTAVYYCAVYDGYYESFDVWGQGTLVTVSS VL: DIVMTQSPDSLAVSLGERATINCKSSQSLLDSDGKTYLNWLQQKPGQSPKRLIYLVSKLDSGVPDRFSGSGSGTDFTLTISSVQAEDLAVYYCWQGTLFPRTFGQGTKLEIK |
| binds | HFB6-5hz20-hG1 (antibody, human IgG1, V domains shown) VH: QVQLVQSGAEVKKPGASVKVSCKASGVNIKDTYMYWVRQAPGQGLEWIGRIDPANGYTRYAQKFQGRATITADTSTSTVYMELSSLRSEDTAVYYCAVYDGYYESFDVWGQGTLVTVSS VL: DIVMTQSPDSLAVSLGERATINCKSSQSLLDSDGKTYLNWLQQKPGQSPKRLIYLVSKLDSGVPDRFSGSGSGTDFTLTISSVQAEDLAVYYCWQGTLFPRTFGQGTKLEIK |
| binds | HFB6-5hz23-hG1 (antibody, human IgG1, V domains shown) VH: QVQLQESGPGLVKPSGTLSLTCAASGVNIKDTYMYWVRQPPGKGLEWIGRIDPANGYTRYNPSFKSRATISADKSKNQASLKLSSVTAADTAVYYCAVYDGYYESFDVWGQGTLVTVSS VL: DIVMTQSPDSLAVSLGERATINCKSSQSLLDSDGKTYLNWLQQKPGQSPKRLIYLVSKLDSGVPDRFSGSGSGTDFTLTISSVQAEDLAVYYCWQGTLFPRTFGQGTKLEIK |
| binds | HFB6-4hz2-hG1 (antibody, human IgG1, V domains shown) VH: QVQLVQSGAEVKKPGASVKVSCKTSGFNIKDTYIHWVRQAPGQGLEWIGRNDPANGNTKYAQKFQGRVTMTADTSTSTVYMELSSLRSEDTAVYYCASYEGYYERFGYWGQGTLVTVSS VL: DIQMTQSPSSLSASVGDRVTITCRSSQSLLDRDGKSYLNWLQQKPGKAPKRLIYLVSKLDSGVPSRFSGSGSGTDFTLTISSLQPEDFATYYCWQDTHFPYTFGQGTKLEIK |
| binds | HFB6-4hz8-hG1 (antibody, human IgG1, V domains shown) VH: QVQLVQSGAEVKKPGASVKVSCKTSGFNIKDTYIHWVRQAPGQGLEWIGRNDPANGNTKYAQKFQGRVTMTADTSTSTVYMELSSLRSEDTAVYYCASYEGYYERFGYWGQGTLVTVSS VL: DVVMTQSPLSLPVTLGQPASISCRSSQSLLDRDGKTYLNWLQQRPGQSPRRLIYLVSKRDSGVPDRFSGSGSGTDFTLKISRVEAEDVGVYYCWQDTHFPYTFGQGTKLEIK |
| binds | HFB6-4hz7-hG1 (antibody, human IgG1, V domains shown) VH: QVQLVQSGAEVKKPGSSVKVSCKTSGFNIKDTYIHWVRQAPGQGLEWIGRNDPANGNTKYAQKFQGRATITADESTSTAYMELSSLRSEDTAVYYCASYEGYYERFGYWGQGTLVTVSS VL: DVVMTQSPLSLPVTLGQPASISCRSSQSLLDRDGKTYLNWLQQRPGQSPRRLIYLVSKRDSGVPDRFSGSGSGTDFTLKISRVEAEDVGVYYCWQDTHFPYTFGQGTKLEIK |
| binds | HFB6-4hz5-hG1 (antibody, human IgG1, V domains shown) VH: QVQLQESGPGLVKPSGTLSLTCAVSGFNIKDTYIHWVRQPPGKGLEWIGRNDPANGNTKYNPSFKSRATISADKSKNQASLKLSSVTAADTAVYYCASYEGYYERFGYWGQGTLVTVSS VL: DIQMTQSPSSLSASVGDRVTITCRSSQSLLDRDGKSYLNWLQQKPGKAPKRLIYLVSKLDSGVPSRFSGSGSGTDFTLTISSLQPEDFATYYCWQDTHFPYTFGQGTKLEIK |
| binds | HFB6-4hz3-hG1 (antibody, human IgG1, V domains shown) VH: EVQLVESGGGLVQPGRSLRLSCTTSGFNIKDTYIHWFRQAPGKGLEWVGRNDPANGNTKYTASFKGRATISADGSKSIAYLQMNSLKTEDTAVYYCASYEGYYERFGYWGQGTLVTVSS VL: DIQMTQSPSSLSASVGDRVTITCRSSQSLLDRDGKSYLNWLQQKPGKAPKRLIYLVSKLDSGVPSRFSGSGSGTDFTLTISSLQPEDFATYYCWQDTHFPYTFGQGTKLEIK |
| binds | HFB6-4hz6-hG1 (antibody, human IgG1, V domains shown) VH: EVQLVQSGAEVKKPGESLKISCKTSGFNIKDTYIHWVRQMPGKGLEWIGRNDPANGNTKYSPSFQGQVTISADKSISTAYLQLSSLKASDTAMYYCASYEGYYERFGYWGQGTLVTVSS VL: DIQMTQSPSSLSASVGDRVTITCRSSQSLLDRDGKSYLNWLQQKPGKAPKRLIYLVSKLDSGVPSRFSGSGSGTDFTLTISSLQPEDFATYYCWQDTHFPYTFGQGTKLEIK |
| binds | HFB6-4hz4-hG1 (antibody, human IgG1, V domains shown) VH: EVQLVESGGGLVQPGGSLKLSCATSGFNIKDTYIHWVRQASGKGLEWIGRNDPANGNTKYAASFKGRATISADDSKNTAYLQLNSLKTEDTAVYYCASYEGYYERFGYWGQGTLVTVSS VL: DIQMTQSPSSLSASVGDRVTITCRSSQSLLDRDGKSYLNWLQQKPGKAPKRLIYLVSKLDSGVPSRFSGSGSGTDFTLTISSLQPEDFATYYCWQDTHFPYTFGQGTKLEIK |

Results are given in words; binding and its absence hold for the method and conditions named. A result given as binding can be weak or reduced; the word gives no strength.
